Screening data, single-dose tests

Source: ChEMBL document CHEMBL3988442, “University of Dundee, Small-Polar-MMV Screening Library” (2021).

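Growth of Mycobacterium tuberculosis over 4 days (cholesterol / DPPC medium with tyloxapol); the read-out is not stated. Tested at 50 µM. The record gives no direction; compounds that gave an IC50 in retests scored well above the rest, so higher reads as more growth inhibition. About 69,000 compounds were tested under these conditions; 0.54% (about 370) showed 50% or more at least once.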

Each number is a percent effect as filed. How 0% and 100% were set is not recorded. Most values in the screen are low, and negative values occur. The compounds are a random part of those screened. Two or more numbers in one place are separate tests of the same structure; such repeats can differ widely.

compound	percent effect
CC(=O)N1CCC(Oc2ccc(Cl)cn2)CC1	9.404%
O=C(NC1CC(=O)N(C2CC2)C1)c1ccc(Cl)s1 (stereo not shown)	13.06%
CC(C)NC(=O)N1CCc2ncnc(-c3ccncc3)c2CC1.O=C(O)C(F)(F)F	4.262%
CC(C)c1csc(C2CCCN(C(=O)c3ccc(=O)n(C)n3)C2)n1 (stereo not shown)	-12.28%
CN(Cc1ccc(Cl)s1)C(=O)CN(C)C1CCCc2ccccc21 (stereo not shown)	25.74%
CC(C)(C)n1ncc2c1CCCC2NCc1ccc2ncccc2c1 (stereo not shown)	6.392%
COc1cc(C(=O)NS(=O)(=O)c2cccc(C#N)c2)ccc1C	-6.599%
Cc1nc(Cc2ccc(F)cc2)cc(C2COCCN2)n1.Cl (stereo not shown)	8.952% and -3.495%
Cc1ncc(Cl)c(C(=O)N2CCCC(n3nc(C)nc3C)C2)n1 (stereo not shown)	4.861%
COc1ccc(-c2nccn2CC(O)CN2CCCC2)c(F)c1 (stereo not shown)	2.542%
[H][C@@]12CS(=O)(=O)C[C@]1([H])N(Cc1nc(C)n[nH]1)CCN2Cc1ccccc1	-3.186%
[H][C@]12CCC(=O)N(c3ccccc3)[C@@]1([H])CCN2C(=O)c1cscn1	-32.6% and -16.81%
COc1nc2ccn(CCc3scnc3C)c(=O)c2cc1C#N	13.45%
COCC1CC2(CCN(Cc3ccccn3)CC2)CN1c1ncccn1.O=C(O)C(F)(F)F.O=C(O)C(F)(F)F.O=C(O)C(F)(F)F (stereo not shown)	-12.18%
O=C1CCC2(CCCN(C(=O)C3CCCC3)C2)CN1CCc1c[nH]cn1 (stereo not shown)	-14.42%
c1ncc(-c2cn(CCSc3cnn[nH]3)nn2)cn1	8.213%
CC(C(=O)NC1CC1)N1CCN(Cc2ccn(C)c(=O)c2)CC1 (stereo not shown)	0.2664%
CS(=O)(=O)NC1CCN(C(=O)NCc2ccccn2)CC1	-6.712%
CCc1ncc(C(=O)NCCN2CCNC2=O)cn1	15.68%
CC(C)CN1CCC2(CCN(Cc3ccoc3)CC2)C1=O	-12%
Cc1ccc(CNc2cnn(CC(F)F)c2)cc1C	3.547%
CC(C)c1nc2c(n1C)CCN(CC(=O)Nc1nncs1)C2	-15.51%
[H][C@]12CCN(C(C)=O)[C@@]1([H])CC[C@H](COCc1csc(C)n1)O2	-19.54%
CC(C)n1c(=O)c2sccc2n(CC(=O)Nc2cccc(Cl)c2)c1=O	-11.04%
COc1cccc(C2CC(=O)Nc3nc(N4CCOCC4)sc32)c1OC (stereo not shown)	-1.839%
Cn1cc(CN2CCc3c(nc(-c4ccccn4)[nH]c3=O)C2)cn1	-13.81%
CC(=O)Nc1nc(CN2CCCC2Cn2cncn2)cs1 (stereo not shown)	2.573%
O=C(N[C@H]1CN(c2nc(CO)cs2)C[C@@H]1C1CC1)C1CCCCC1	4.387% and 22.1%
Cn1ccc(C(=O)N2CCc3[nH]nc(Nc4ccccc4)c3C2)n1	-8.929% and 3.489%
COCCC(=O)N(Cc1ccccn1)Cc1ccccc1C	-14.25%
CC(C)(C)C(CCO)NC(=O)Nc1ccccc1 (stereo not shown)	12.76%
Cc1cccc(C2(C(=O)NS(=O)(=O)c3cnn(C)c3)CCCC2)c1	-18.69%
CNc1ncc(CN(C)C2CCN(C(C)C)CC2)cn1	-23.48%
Cn1nc(C#N)c2c1CN(C(=O)c1ccco1)CCC2	-10.42%
Cc1nc(CN2CCCC(N(C)Cc3cscn3)C2)no1 (stereo not shown)	26.44%
O=c1[nH]c2c(-c3ccccn3)nsc2c(=O)n1C1CCCCC1	-4.728%
Cc1nc(CNC(C)c2cccc(N3CCCC3=O)c2)cs1.Cl (stereo not shown)	-12.82%
Cc1ccc(CNC(=O)CN2CCCC(Cn3cncn3)C2)cc1 (stereo not shown)	6.38%
Cc1ncc(CN2CCc3c(nc(-c4ccccn4)[nH]c3=O)C2)n1C	-6.501%
NC[C@H]1CC[C@H](C(NC(=O)C2CC2)c2ccccn2)CC1 (stereo partly shown)	-15.7%
COCC(O)CNC(=O)c1coc(COc2ccc3sc(C)nc3c2)n1 (stereo not shown)	-6.983%
O=C(O)C(F)(F)F.[H][C@@]12CCN(C(=O)c3ccccn3)[C@]1([H])CCC(=O)N2Cc1csc(C)n1	-28.56%
CCc1cnc(CN(C)C2CCN(CCCNS(C)(=O)=O)C2)o1 (stereo not shown)	-14.01%
CCN(C)C[C@@H]1CN(Cc2cnc3c(S(C)(=O)=O)cnn3c2)C[C@@H]1CO	-13.78%
CCc1nc(CN2CCCN(Cc3nnc(C4CC4)o3)CC2)no1	-15.21%
Cc1nc(C)n(CC2CCCN(c3ccnc(-c4ccccc4)n3)C2)n1 (stereo not shown)	21.23%
COc1ccc(Nc2nc3c(C)nn(C)c3c(=O)n2C)c(OC)c1	1.873%
Cc1cc(S(=O)(=O)N2CCCc3ccc(F)cc32)sc1C(=O)O	8.7%
O=C1CN(C(=O)c2cc3ccc(Br)cc3[nH]2)CCN1	-4.088%
CCC1CN(Cc2ccccc2)CCN1Cc1nnc(C2CCC2)o1 (stereo not shown)	-3.971%
O=C(O)C(F)(F)F.[H][C@@]12OCCN(C(=O)c3cccn3C)[C@@]1([H])CC[C@H]2OCc1cccnc1	-4.318%
c1cncc(OCc2nc(C3CC3)nn2-c2ccc3c(c2)OCCO3)c1	-11.41%
COc1cnc(N2CCN(C)CC2)nc1-c1ccnn1C	28.17%
CC(c1nc(C2CC2)no1)N(C)Cc1ccc(C#N)cc1 (stereo not shown)	-3.01%
CCNC(=O)Cn1ncc(N(C)CCc2ccccc2)cc1=O	-6.635%
N#Cc1cccc(N2CCCC3(C2)CN(c2nncs2)CCO3)c1 (stereo not shown)	-11.05% and -33.78%

The first 3 entries again:

{"compound": "CC(=O)N1CCC(Oc2ccc(Cl)cn2)CC1", "percent effect": 9.404}
{"compound": "O=C(NC1CC(=O)N(C2CC2)C1)c1ccc(Cl)s1", "stereo": "stereo not shown", "percent effect": 13.06}
{"compound": "CC(C)NC(=O)N1CCc2ncnc(-c3ccncc3)c2CC1.O=C(O)C(F)(F)F", "percent effect": 4.262}